The values below come from paper PMC5633884.

These are yes or no findings as the source states them, for the method shown. In cells and extracts the contact can be indirect. Some entries that bind do so weakly or less than the wild type.

Assay [1] has as its target KIBRA (human (endogenous in PNT1B, PC3 and DU145)), Q8IX03. The assay is described as follows: co-IP; endogenous proteins; PNT1B, PC3 and DU145 cells lysed with RIPA; 100 ug total protein with 5 ug specific antibody and 40 ul protein G-sepharose beads on ice overnight; washed three times with chilled PBS; western blot. The settings on record: remark: other sources report otherwise. (A western blot detects proteins with antibodies after separation by electrophoresis.)

Assay [2] has the same target. The assay is described as follows: co-IP; membranous and cytoplasmic protein extracts taken apart; PC3-con, PC3-shPar3 (stable Par3 knockdown) and PC3-Par3OE (Par3 overexpression) cells; western blot. The conditions noted are these: remark: other sources report otherwise.

B1: FRMD6, Q96NE9 1-622 (protein)
chain: MNKLNFHNNRVMQDRRSVCIFLPNDESLNIIINVKILCHQLLVQVCDLLRLKDCHLFGLSVIQNNEHVYMELSQKLYKYCPKEWKKEASKVRQYEVTWGIDQFGPPMIIHFRVQYYVENGRLISDRAARYYYYWHLRKQVLHSQCVLREEAYFLLAAFALQADLGNFKRNKHYGKYFEPEAYFPSWVVSKRGKDYILKHIPNMHKDQFALTASEAHLKYIKEAVRLDDVAVHYYRLYKDKREIEASLTLGLTMRGIQIFQNLDEEKQLLYDFPWTNVGKLVFVGKKFEILPDGLPSARKLIYYTGCPMRSRHLLQLLSNSHRLYMNLQPVLRHIRKLEENEEKKQYRESYISDNLDLDMDQLEKRSRASGSSAGSMKHKRLSRHSTASHSSSHTSGIEADTKPRDTGPEDSYSSSAIHRKLKTCSSMTSHGSSHTSGVESGGKDRLEEDLQDDEIEMLVDDPRDLEQMNEESLEVSPDMCIYITEDMLMSRKLNGHSGLIVKEIGSSTSSSSETVVKLRGQSTDSLPQTICRKPKTSTDRHSLSLDDIRLYQKDFLRIAGLCQDTAQSYTFGCGHELDEEGLYCNSCLAQQCINIQDAFPVKRTSKYFSLDLTHDEVPEFVV
For the molecule B1, the binding result in assay [1] and in assay [2] was “binds” throughout.
